Measured values published in article PMC11020826.
Results are given in words; binding and its absence hold for the method and conditions named. In cells and extracts the contact can be indirect. Some entries that bind do so weakly or less than the wild type. Tags and fused reporters may be left off the sequences shown.

T1: nYFP-PYE (Arabidopsis) (UniProt Q9SN74)
T1 sequence: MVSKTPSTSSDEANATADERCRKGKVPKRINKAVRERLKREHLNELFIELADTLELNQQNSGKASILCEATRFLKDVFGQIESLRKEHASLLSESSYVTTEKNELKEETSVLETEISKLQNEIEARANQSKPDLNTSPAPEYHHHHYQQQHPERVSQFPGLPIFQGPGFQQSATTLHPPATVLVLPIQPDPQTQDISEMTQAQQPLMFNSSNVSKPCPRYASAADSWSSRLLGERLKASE

B1: cYFP-OLV-TGIYY (peptide)
chain: WVPHEGTGIYYPKGQEK
B2: cYFP-bHLH39 (protein, UniProt Q9M1K0 1-258)
chain: MCALVPPLFPNFGWPSTGEYDSYYLAGDILNNGGFLDFPVPEETYGAVTAVTQHQNSFGVSVSSEGNEIDNNPVVVKKLNHNASERDRRRKINSLFSSLRSCLPASGQSKKLSIPATVSRSLKYIPELQEQVKKLIKKKEELLVQISGQRNTECYVKQPPKAVANYISTVSATRLGDNEVMVQISSSKIHNFSISNVLSGLEEDRFVLVDMSSSRSQGERLFYTLHLQVEKIENYKLNCEELSQRMLYLYEECGNSYI

Target: T1, nYFP-PYE (Arabidopsis)
Assay: split reporter; BiFC 2in1 vector system (pBiFC-2in1-NN, N-terminal nYFP and cYFP fusions) in transiently transformed tobacco leaf epidermis cells; mRFP as transformation control

Row | Binder | binding
1 | B1 | binds
2 | B2 | no binding
